Measurements reported in PubChem BioAssay AID1259405 (NCATS, 2018)
Test: 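Mouse-designed siRNAs used to find CHO productivity engineering targets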 (primary screen). System: Chinese hamster CHO-K1 ovary cells with stable secreted eGFP expression. Knock-down reagent: single siRNA against mouse genes, 0.8 pmol siRNA per well (2 µl of 400 nM stock). Time to read-out: 3 days. Read-out: 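Per-well intracellular GFP measured by laser scanning cytometry, plus viability from ATP luminescence, each relative to plate median of non-targeting control wells, in %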. Reading the numbers: GFP, % of control: higher = more GFP per well, higher productivity; viability (ATP), % of control: higher = more viable cells (more ATP). Hit rule: 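a knock-down is called active if GFP reaches 120% or more of non-targeting control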.
This is a random part of about 50,000 deposited reagents. Of all reagents, about 4,000 (8%) got an active call. 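Mouse siRNA library applied to hamster cells; one well for each siRNA.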 Entries without a mark were called inactive. Reagents against one gene are numbered here.

The opening 2 records, to show the layout:
{"Target gene": "Hsd3b1", "siRNA no.": 1, "GFP, % of control": 81.2, "viability (ATP), % of control": 72}
{"Target gene": "Hsd3b1", "siRNA no.": 2, "GFP, % of control": 95.3, "viability (ATP), % of control": 72.9}

The listing, from the start:
{"Target gene": "Hsd3b1", "siRNA no.": 1, "GFP, % of control": 81.2, "viability (ATP), % of control": 72}
{"Target gene": "Hsd3b1", "siRNA no.": 2, "GFP, % of control": 95.3, "viability (ATP), % of control": 72.9}
{"Target gene": "Or5g25 (olfactory receptor family 5 subfamily G member 25)", "siRNA no.": 1, "GFP, % of control": 63.9, "viability (ATP), % of control": 88.1}
{"Target gene": "Or5g25 (olfactory receptor family 5 subfamily G member 25)", "siRNA no.": 2, "GFP, % of control": 56.4, "viability (ATP), % of control": 65.9}
{"Target gene": "Or5g25 (olfactory receptor family 5 subfamily G member 25)", "siRNA no.": 3, "GFP, % of control": 97.1, "viability (ATP), % of control": 103}
{"Target gene": "Pcdhga6 (protocadherin gamma subfamily A, 6)", "siRNA no.": 1, "GFP, % of control": 65, "viability (ATP), % of control": 64.2}
{"Target gene": "Pcdhga6 (protocadherin gamma subfamily A, 6)", "siRNA no.": 2, "GFP, % of control": 70.8, "viability (ATP), % of control": 77.7}
{"Target gene": "Pcdhga6 (protocadherin gamma subfamily A, 6)", "siRNA no.": 3, "GFP, % of control": 84.2, "viability (ATP), % of control": 44.4}
{"Target gene": "Grik2 (glutamate receptor, ionotropic, kainate 2 (beta 2))", "siRNA no.": 1, "GFP, % of control": 62.3, "viability (ATP), % of control": 96.5}
{"Target gene": "Grik2 (glutamate receptor, ionotropic, kainate 2 (beta 2))", "siRNA no.": 2, "GFP, % of control": 52, "viability (ATP), % of control": 55.7}
{"Target gene": "Grik2 (glutamate receptor, ionotropic, kainate 2 (beta 2))", "siRNA no.": 3, "GFP, % of control": 56.1, "viability (ATP), % of control": 63.7}
{"Target gene": "Rab40c (Rab40C, member RAS oncogene family)", "siRNA no.": 1, "GFP, % of control": 116, "viability (ATP), % of control": 102}
{"Target gene": "Rab40c (Rab40C, member RAS oncogene family)", "siRNA no.": 2, "GFP, % of control": 105, "viability (ATP), % of control": 85.1}
{"Target gene": "Rab40c (Rab40C, member RAS oncogene family)", "siRNA no.": 3, "GFP, % of control": 87, "viability (ATP), % of control": 70.6}
{"Target gene": "Megf10 (multiple EGF-like-domains 10)", "siRNA no.": 1, "GFP, % of control": 97.1, "viability (ATP), % of control": 106}
{"Target gene": "Megf10 (multiple EGF-like-domains 10)", "siRNA no.": 2, "GFP, % of control": 71.6, "viability (ATP), % of control": 60.7}
{"Target gene": "Megf10 (multiple EGF-like-domains 10)", "siRNA no.": 3, "GFP, % of control": 92.9, "viability (ATP), % of control": 84.8}
